PubChem BioAssay AID1259254 | NCATS – 2017
The whole screen tested about 59,000 reagents; this is an unselected part. About 1,550 of them (2.6%) count as active. 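G2 share is only a proxy for re-replication; each gene was hit by three separate siRNAs, and active genes were retested.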 Raw values vary from plate to plate and are shown uncorrected. A number with no mark means an inactive call. The numbers tell different reagents against one gene apart. Not given: the amount of reagent.

Assay: 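Finding genes that stop cells copying their DNA twice in one cycle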 (primary screen)
Cell system: human HCT116 colorectal cancer cells
Reagents: single siRNA against human genes
Duration: 3 days
Detection: 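Nuclei stained with Hoechst and imaged; cell-cycle phase assigned by DNA content; G2 share scaled per plate, non-targeting siRNA 0%, GMNN siRNA 100%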
Direction: G2 robust z-score and G2 cells, % of GMNN control: higher = more G2 cells, more excess DNA replication; raw share of cells in G2: higher = larger share of cells with G2 DNA content
Call rule: 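Active siRNAs have a G2 robust z of 5 or more median absolute deviations over the median, which in these data means about 38% or higher of GMNN control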

Target gene | reagent | G2 robust z-score | G2 cells, % of GMNN control | raw share of cells in G2 (%)
VCPKMT | 1 | 1.78 | 15.5 | 6.78
VCPKMT | 2 | 0.296 | 5.05 | 6.78
VCPKMT | 3 | -0.713 | -2.05 | 3.69
SPACA4 | 1 | -0.59 | -1.18 | 2.39
SPACA4 | 2 | -0.869 | -3.14 | 2.48
SPACA4 | 3 | -0.0717 | 2.46 | 3.78
INSM1 | 1 | 1.2 | 11.4 | 9.82
INSM1 | 2 | -0.288 | 0.943 | 4.59
INSM1 | 3 | -0.00106 | 2.96 | 4.42
DTNBP1 | 1 | -1.08 | -4.63 | 2.57
DTNBP1 | 2 | 0.0737 | 3.49 | 4.49
DTNBP1 | 3 | 8.34 (active) | 61.6 | 21.1
NNMT | 1 | 0.317 | 5.2 | 7.53
NNMT | 2 | -1.1 | -4.78 | 3.51
NNMT | 3 | -0.0768 | 2.43 | 4
TRIM3 | 1 | -1.01 | -4.11 | 4.86
TRIM3 | 2 | 1.53 | 13.7 | 8.28
TRIM3 | 3 | -0.691 | -1.89 | 4.87
HEATR6 | 1 | -0.197 | 1.58 | 3.35
HEATR6 | 2 | -0.734 | -2.2 | 4.92
HEATR6 | 3 | -0.328 | 0.66 | 3.84
HEXA | 1 | 4.61 | 35.4 | 17.9
HEXA | 2 | 1.39 | 12.7 | 10.5
HEXA | 3 | 0.0421 | 3.26 | 5.4
GAK | 1 | -0.979 | -3.92 | 4.31
GAK | 2 | -0.578 | -1.1 | 5.04
GAK | 3 | -0.594 | -1.21 | 3.6

The list goes on (5 carried over from the part before).
Target gene | reagent | G2 robust z-score | G2 cells, % of GMNN control | raw share of cells in G2 (%)
HEXA | 2 | 1.39 | 12.7 | 10.5
HEXA | 3 | 0.0421 | 3.26 | 5.4
GAK | 1 | -0.979 | -3.92 | 4.31
GAK | 2 | -0.578 | -1.1 | 5.04
GAK | 3 | -0.594 | -1.21 | 3.6
RLIM | 1 | -0.82 | -2.8 | 1.8
RLIM | 2 | 5.26 (active) | 39.9 | 24
RLIM | 3 | -0.194 | 1.61 | 4.14
CIMAP1D | 1 | -1.02 | -4.18 | 1.43
CIMAP1D | 2 | 1.07 | 10.5 | 6.46
CIMAP1D | 3 | 2.6 | 21.3 | 11.4
FRYL | 1 | 1.61 | 14.3 | 8.84
FRYL | 2 | -0.277 | 1.02 | 3.44
FRYL | 3 | -0.471 | -0.345 | 3.16
FRYL | 4 | -0.946 | -3.69 | 2.14
FRYL | 5 | -0.0383 | 2.7 | 3.82
FRYL | 6 | -0.939 | -3.64 | 2.22
RTP3 | 1 | -1 | -4.1 | 2.74
RTP3 | 2 | 3.34 | 26.5 | 11.3
RTP3 | 3 | -0.949 | -3.71 | 1.28
DPP6 | 1 | 0.676 | 7.72 | 5.07
DPP6 | 2 | -0.609 | -1.32 | 2.94
DPP6 | 3 | 6.44 (active) | 48.3 | 27.5
DPP6 | 4 | -0.0953 | 2.3 | 3.94
DPP6 | 5 | 2.95 | 23.7 | 13.7
DPP6 | 6 | -0.48 | -0.411 | 3.02
DIRAS1 | 1 | 2.58 | 21.1 | 12.4
DIRAS1 | 2 | 0.612 | 7.27 | 7.76
DIRAS1 | 3 | -0.399 | 0.159 | 6.03
EPHB4 | 1 | -0.815 | -2.76 | 4.69
EPHB4 | 2 | -1.03 | -4.27 | 3.97
EPHB4 | 3 | -0.838 | -2.93 | 2.99
CST5 | 1 | 0.308 | 5.13 | 5.86
CST5 | 2 | -0.468 | -0.327 | 4.84
CST5 | 3 | -0.543 | -0.853 | 4.68
CHST15 | 1 | 3.82 | 29.8 | 15.3
CHST15 | 2 | -0.533 | -0.783 | 3.5
CHST15 | 3 | -0.0771 | 2.42 | 7.05
HBEGF | 1 | -1.11 | -4.86 | 3.47
HBEGF | 2 | -0.424 | -0.0151 | 5.26
HBEGF | 3 | 0.709 | 7.96 | 6.49
WDR72 | 1 | -0.287 | 0.95 | 3.92
WDR72 | 2 | -0.183 | 1.68 | 3.71
WDR72 | 3 | -0.25 | 1.21 | 3.58
FSIP1 | 1 | -0.495 | -0.513 | 3.42
FSIP1 | 2 | 0.0178 | 3.09 | 4
FSIP1 | 3 | 0.41 | 5.86 | 4.61
